These are yes or no findings as the source states them, for the method shown. In cells and extracts the contact can be indirect. A result given as binding can be weak or reduced; the word gives no strength. Where a sequence is shown, tags or fusion partners need not be part of it.
T1: HIP-mAID-HA (TgHIP with a C-terminal miniAID-3HA tag) (Toxoplasma gondii (endogenous locus in RHΔKu80-Tir1)) (UniProt S8GK24)
T1 sequence: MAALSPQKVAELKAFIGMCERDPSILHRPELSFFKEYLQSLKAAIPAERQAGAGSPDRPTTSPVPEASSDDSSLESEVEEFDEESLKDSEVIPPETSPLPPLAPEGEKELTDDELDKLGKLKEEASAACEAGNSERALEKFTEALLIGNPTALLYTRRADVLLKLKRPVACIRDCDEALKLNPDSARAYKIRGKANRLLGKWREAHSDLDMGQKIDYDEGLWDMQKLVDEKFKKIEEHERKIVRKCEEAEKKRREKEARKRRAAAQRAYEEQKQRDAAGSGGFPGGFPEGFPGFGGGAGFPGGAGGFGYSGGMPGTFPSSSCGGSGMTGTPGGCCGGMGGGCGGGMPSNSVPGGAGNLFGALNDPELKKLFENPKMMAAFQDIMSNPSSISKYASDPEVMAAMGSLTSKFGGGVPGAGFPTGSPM

B1: HIP-mAID-HA (TgHIP with a C-terminal miniAID-3HA tag) (protein, UniProt S8GK24 1-425)
chain: T1 sequence

Columns and labels:
[1] = target: T1, HIP-mAID-HA (TgHIP with a C-terminal miniAID-3HA tag) (Toxoplasma gondii (endogenous locus in RHΔKu80-Tir1)); test: co-IP; lysates of HIP-mAID-HA/HOOK-Ty parasites in 1% Triton X-100-PBS; anti-HA or anti-Ty antibodies with Protein A-Sepharose, 4°C; eluate read by Western blot
[2] = target: TgHOOK endogenously Ty-tagged in the HIP-mAID-HA strain (HOOK-Ty) (Toxoplasma gondii (endogenous locus in RHΔKu80-Tir1)); test: as above

Molecule	binding [1]	binding [2]
TgHOOK endogenously Ty-tagged in the HIP-mAID-HA strain (HOOK-Ty)	binds	
B1		binds

— paper PMC10294612
